In US5846939A, “Use of a decapeptide with benzodiazepine-type activity for preparing medicines and food supplements” (Societe Cooperative Agricole Laitiere D'Artois Et Des …, priority 1994, dated 1998):
Part of at least one peptide drawing is inferred or uncertain, most often the ends. Residues, ends and D or L forms follow the SMILES beside them.

Target: central benzodiazepine receptor
Assay: In vitro competition test on the benzodiazepine receptor with 3H-methyl-flunitrazepam ([…] kit)
Type: binding
Details: displacement of 3H-methyl-flunitrazepam, one hour at +4° C.; read-out: IC50 relative to the central benzodiazepine receptor

CC(C)C[C@H](NC(=O)[C@H](CC(C)C)NC(=O)[C@H](CCC(N)=O)NC(=O)[C@H](CCC(=O)O)NC(=O)[C@H](CC(C)C)NC(=O)[C@H](Cc1ccc(O)cc1)NC(=O)CNC(=O)[C@H](CC(C)C)NC(=O)[C@@H](N)Cc1ccc(O)cc1)C(=O)N[C@@H](CCCNC(=N)N)C(=O)O [synthesized peptide] (H-YLGYLEQLLR-OH)
IC50: 370 µM
